{"source": "patent US20100168406A1", "about": "“USE OF GINSENOSIDE Rb2 MONOMER IN THE MANUFACTURE OF MEDICAMENTS FOR THROMBOLYSIS” (priority 2006, published 2010)", "test_system": "thrombi", "test": "In vitro thrombolytic effect on capillary thrombi (24 h, 37° C.)", "format": "biochemical, Wistar rats", "conditions": "1 mg/ml in NS, listed as ginsenoside monomer Rb2 (98%)", "description": "Nine female Wistar rats were used. Blood samples were taken from postorbital venous plexus using hard neutral glass capillary, 4 capillaries for each rat and 36 capillaries in total. The capillaries which contained the blood samples were left over night and the thrombi were then removed. The 4 thrombus samples of each rat were placed into test tubes containing 1 ml NS solution, 1000 U urokinase in 1 ml NS solution, 1 mg Rb2 (80%) in 1 ml NS solution and 1 mg Rb2 (98%) in 1 ml NS solution, respectively. All the test tubes were placed into a water bath at a temperature of 37° C. with shaking at an interval of 30 minutes. 24 hours later, the solutions were decanted, the remaining thrombi were weighed and the thrombolysis rate was calculated. Thrombolysis rate=(starting weight of thrombus−remaining weight of thrombus)/starting weight of thrombus×100%", "note": "Some entries share one result that the patent states for a list of compounds. At least one compound was matched to its structure with a doubt left."}
{"smiles": "CC(C)=CCC[C@](C)(O[C@@H]1O[C@H](CO[C@@H]2OC[C@H](O)[C@H](O)[C@H]2O)[C@@H](O)[C@H](O)[C@H]1O)[C@H]1CC[C@]2(C)[C@@H]1[C@H](O)C[C@@H]1[C@@]3(C)CC[C@H](O[C@@H]4O[C@H](CO)[C@@H](O)[C@H](O)[C@H]4O[C@@H]4O[C@H](CO)[C@@H](O)[C@H](O)[C@H]4O)C(C)(C)[C@@H]3CC[C@]12C", "note": "[Rb2 (98%), ginsenoside Rb2]", "values": [{"measurement": "Thrombolysis rate %", "value": "exceeding 70%"}]}
